The record followed here is article PMC11934079, “Structural and Mechanistic Characterization of the Flavin-Dependent Monooxygenase and Oxidase Involved in Sorbicillinoid Biosynthesis” (ACS Chemical Biology, 2025).

By UniProt entry, the sequences of proteins in these tests, tags left out.
UniProt B6HN76: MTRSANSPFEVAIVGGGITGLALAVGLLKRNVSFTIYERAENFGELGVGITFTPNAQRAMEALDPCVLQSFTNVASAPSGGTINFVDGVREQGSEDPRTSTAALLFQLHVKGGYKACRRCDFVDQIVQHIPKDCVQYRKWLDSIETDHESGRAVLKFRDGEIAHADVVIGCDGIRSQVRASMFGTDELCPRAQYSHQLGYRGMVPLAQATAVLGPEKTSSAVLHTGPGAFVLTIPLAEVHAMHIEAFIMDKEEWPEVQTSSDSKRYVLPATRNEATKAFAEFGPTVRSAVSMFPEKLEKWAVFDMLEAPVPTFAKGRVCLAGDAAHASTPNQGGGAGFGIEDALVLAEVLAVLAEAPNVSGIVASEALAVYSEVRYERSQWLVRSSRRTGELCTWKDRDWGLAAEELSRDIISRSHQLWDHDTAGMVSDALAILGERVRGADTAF

The assay has as its target flavin-dependent monooxygenase SorC from Penicillium chrysogenum (Penicillium chrysogenum) (UniProt B6HN76). The assay can be described thus: SEC + other: mass photometry; oligomeric state of the purified enzyme alone; conditions in the Supporting Information (Figures S5, S7, S13); both purified.

No constants are given. Whether binding was seen depends on the method and setting.

On to “flavin-dependent monooxygenase SorC from Penicillium chrysogenum (from UniProt B6HN76 1-445) (enzyme)”, for which the binding result is “no binding”.
